Source: patent US20090203661A1, “Betulinic acid, derivatives and analogs thereof and uses therefor” (priority 2006, published 2009)
Some results were stated once for a whole list of compounds, not compound by compound. At least one structure is not confirmed: it was looked up by name or label, or the drawing left a doubt.

Test system: Panc-28 cells
Assay: Cell proliferation assay, Panc-28 cells
Format: cell-based, human
Conditions: read-out: IC50 values, inhibition of growth
Method: SW480, HT-29 and HCT-15 human colon cancer cells were provided by Dr. Stan Hamilton (M. D. Anderson Cancer Center (Houston, Tex.). Panc-28 human pancreatic cancer cells and 3T3-L1 pre-adipocytes were obtained from American Type Culture Collection (Manassas, Va.). SW480, HT-29 and Panc-28 cells were maintained in Dulbecco's modified/Ham's F-12 (Sigma-Aldrich, St Louis, Mo.) with phenol red supplemented with 0.22% sodium bicarbonate, 0.011% sodium pyruvate, 5% fetal bovine serum, and 10 mL/L 100× antibiotic antimycotic solution (Sigma). HCT-15 cells were maintained in RPMI 1640 (Sigma) supplemented with 0.22% sodium bicarbonate, 0.011% sodium pyruvate, 0.45% glucose, 0.24% HEPES, 10% fetal bovine serum, and 10 mL/L of 100× antibiotic antimycotic solution (Sigma). Cells were maintained at 37° C. in the presence of 5% CO2.
This assay is performed in 12-well tissue culture plates at the concentration of 2×10^4 cells per well, using DMEM/Ham's F-12 media containing 2.5% charcoal stripped FBS. The cells were counted on the initial day using a Z1 cell counter (Beckman Coulter, Fullerton, Calif.) and then were treated either with vehicle (DMSO) or the indicated triterpenoid compounds, each sample in triplicate. Every 48 hr, fresh medium was added along with the indicated compounds. […] The results are expressed as means±S.E for each set of triplicate.

Row | Structure (SMILES) | IC50 [nM]
1 | COC(=O)C12CCC(C(C)C)C1C1CCC3C4(C)C=C(C#N)C(=O)C(C)(C)C4CCC3(C)C1(C)CC2 (centres unmarked) [CN-BA-Me, Methyl 2-cyano-lup-1-en-3-oxo-20-oate] | 1000 to 2500
2 | CC(C)C1CCC2(C(=O)O)CCC3(C)C(CCC4C5(C)C=C(C#N)C(=O)C(C)(C)C5CCC43C)C12 (centres unmarked) [CN-BA] | 1000 to 2500
